For 40 molecules, cell number change and AC50 results are on record in PubChem BioAssay AID2685 (National Center for Advancing Translational Sciences (NCATS), 2010).

Molecules are shown by their SMILES. The list shows a part of the results. The main result of the screen is listed elsewhere. These columns were measured beside it and carry no call. The list favours compounds with an active or inconclusive main result. Potencies come from curve fits of mixed quality, noted in brackets.

The nature of the test: qHTS Assay for Lipid Storage Modulators in Drosophila S3 Cells.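 As to cell number change: cells counted by Cell Tracker Red CMTPX staining in the red channel.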 The note with it: BODIPY lipid droplet fluorescence, 18-24 h; for cell number change: measured here: cell count max response, cells fed with added oleic acid. The method, boiled down:
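Drosophila S3 cells loaded with oleic acid (400 uM, as added) and compounds at several concentrations; lipid droplets imaged by 488-nm laser-scanning cytometry, 500–530 nm intensity and object ratio to cell channel. Percent activity normalized to 20 uM Triacsin C.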
A general note: Quantitative high-throughput screening tests each substance at several concentrations.

The mark [1] stands for this setting: measured here: cell number channel AC50, cells fed with added oleic acid.
[2] abbreviates: measured here: lipid fluorescence (Fed channel) AC50, cells fed with added oleic acid.

Turning to `CCn1c(CNC(=O)c2ccccc2F)nnc1SCCOc1ccccc1`, the cell number change amounted to 1.92%. Moreover, the AC50 (in general, the midpoint of the concentration-response curve, whichever way the signal moves) under setting [1] is 4.11 µM [rising, partial curve, poor fit].

Turning to `N#CCSc1nc(-c2ccccc2)c2cc(Cl)ccc2n1`, the cell number change was 5.26%. Further, the half-maximal activity concentration (AC50) under setting [2] is 16.4 µM [rising, single point].

For `Cn1cccc1C(=S)N1CCOCC1`, the cell number change was -27.8%. Further, the AC50 under setting [1] was 0.291 µM [falling, full curve, poor fit]. The half-maximal activity concentration (AC50) under setting [2] is 0.206 µM [falling, full curve, poor fit].

Regarding `CC(C)C[C@H]1CN=C(Nc2ccccc2)N1CCCCc1ccccc1`, the cell number change was -4.79%. Moreover, under setting [2], the AC50 is 9.2 µM [falling, single point].

With `COc1ccc(C(OC(=O)c2ccco2)C(=O)NC2CCCC2)cc1OC` (stereo not drawn), the cell number change is -7.94%.

In the case of `COc1cccc(/C=C2/C(=O)NN(c3ccc(Br)cc3)C2=O)c1O`, the cell number change was -36.3%. Moreover, the half-maximal activity concentration (AC50) under setting [1] is 8.2 µM [falling, partial curve]. Besides, under setting [2], the AC50 was 29.1 µM [falling, single point].

For the molecule `O=C(NC1CC1)C1CCC(=O)N1C1CCCC1` (stereo not drawn), the AC50 reads like this: under setting [1], 0.146 µM [falling, full curve, poor fit]; under setting [2], 6.51 µM [falling, single point].

Turning to `Cc1ccc(NC(=O)COC(=O)C2CC(=O)N(Cc3ccccc3)C2)cc1F` (stereo not drawn), the cell number change is -23.6%. Moreover, under setting [1], the AC50 is 0.116 µM [falling, full curve, poor fit]. Further, the AC50 under setting [2] is 0.58 µM [falling, single point].

Consider `COC(=O)c1ccc(OC)c(CN2CCCN(Cc3cc(C)ccc3C)S2(=O)=O)c1`, for which the cell number change worked out at 19.9%. Further, the AC50 under setting [1] was 2.91 µM [rising, single point].

`O=C(N/N=C/c1cc(Cl)cc([N+](=O)[O-])c1O)c1cccc(S(=O)(=O)N2CCOCC2)c1`: the cell number change was determined as 23%. Further, under setting [2], the AC50 was 29.1 µM [rising, single point].

Turning to `CCCCNC(=O)c1sc2nc(C)cc(COC)c2c1-n1cccc1`, the cell number change was -4.43%. In addition, the half-maximal activity concentration (AC50) under setting [2] is 11.6 µM [falling, partial curve, poor fit].

In the case of `C/C(=N\OCc1ccc(C#N)cc1)c1cc2ccccc2o1`, the cell number change stood at 7.93%. For the same molecule, the concentration at half-maximal activity (AC50) under setting [2] is 10.3 µM [rising, partial curve].

With `CC(C)CCOP(=O)(c1ccccc1)c1ccccc1`, the cell number change is -6.2%. Moreover, the half-maximal activity concentration (AC50) under setting [2] is 20.6 µM [falling, single point].

For the molecule `CC(C)Oc1ccc(S(=O)(=O)N2CCOCC2)cc1NC(=O)CN1C(=O)NC2(CCCC2)C1=O`, the cell number change was found to be 7.33%.

As for `Cc1nnsc1-c1onc(C)c1C(=O)Nc1cc(Cl)cc(Cl)c1`, the cell number change was -0.679%. For the same molecule, under setting [1], the AC50 was 0.82 µM [rising, single point].

Consider `CC(=O)Nc1ccc(NC(=O)COc2ccc(S(=O)(=O)N3CCCC3)cc2)cc1`, for which the cell number change was -5.26%.

For the molecule `O=[N+]([O-])c1cccc(S(=O)(=O)NCCOc2cccc3cccnc23)c1`, the cell number change is -20.5%. For the same molecule, under setting [2], the concentration at half-maximal activity (AC50) was 6.51 µM [falling, single point].

Take `COCc1c(C(=O)N/N=C(/C)c2cccs2)nnn1-c1nonc1N`: the cell number change was found to be 7.21%.

Turning to `O=C(Nc1cccc(S(=O)(=O)N2CCCCC2)c1)c1ccc([N+](=O)[O-])o1`, the cell number change was -40.3%. For the same molecule, under setting [1], the AC50 is 0.0231 µM [falling, full curve, poor fit]. Besides, under setting [2], the concentration at half-maximal activity (AC50) was 0.731 µM [falling, full curve, poor fit].

As to `O=C(CN1CCOCC1)NCc1ccccc1Cl`, the cell number change was -10.3%.

`O=C(COC(=O)/C=C/c1ccc(F)cc1)NC1CCCC1`: the cell number change came out at 7.5%.

Consider `CCOC(=O)c1ccc(NC(=S)N(Cc2cccnc2)Cc2ccco2)cc1`, for which the cell number change was -68.7%. Besides, under setting [1], the AC50 is 29.1 µM [falling, single point]. Moreover, under setting [2], the AC50 was 18.4 µM [falling, single point].

Turning to `O=C(Cc1ccc(Cl)c(Cl)c1)Nc1cccc2ncccc12`, the cell number change is 68.2%. Moreover, the half-maximal activity concentration (AC50) under setting [1] was 18.4 µM [rising, single point].

Consider `CCOc1ccc(S(=O)(=O)n2cnc3ccccc32)cc1`, for which the half-maximal activity concentration (AC50) under setting [2] is 0.651 µM [falling, single point].

`O=C(O)c1cc(C(F)(F)F)nc2c(C(F)(F)F)cccc12`: the cell number change was -14.8%. The AC50 under setting [2] was 18.4 µM [falling, partial curve, poor fit].

As for `CC1CCN(CCCNC(=O)c2cc3sccc3n2C)CC1`, the cell number change was 15.7%.

For the molecule `Cc1ccccc1N1C(=O)CC(Sc2nnc(-c3ccccc3)o2)C1=O` (stereo not drawn), the cell number change was -87.2%. Further, the half-maximal activity concentration (AC50) under setting [1] was 29.1 µM [falling, single point]. In addition, under setting [2], the concentration at half-maximal activity (AC50) was 25.9 µM [falling, partial curve].

For the molecule `CCOC(=O)c1c(NC(=O)CC2SC(N)=NC2=O)sc2c1CCC(C)C2` (stereo not drawn), the cell number change was 16.6%. For the same molecule, the concentration at half-maximal activity (AC50) under setting [2] was 5.17 µM [rising, single point].

In the case of `CC(=O)Cc1nsc(Nc2ccccc2)n1`, the cell number change was -71.5%. Moreover, the half-maximal activity concentration (AC50) under setting [1] is 25.9 µM [falling, partial curve, poor fit]. Besides, under setting [2], the half-maximal activity concentration (AC50) is 23.1 µM [falling, partial curve].

Consider `COc1ccc(-c2nc3scc(-c4ccccc4)n3n2)cc1`, for which the cell number change was -17.4%. For the same molecule, the AC50 under setting [2] was 0.651 µM [rising, single point].

In the case of `O=C1C2ON(c3ccccc3)C(c3ccccc3F)C2C(=O)N1c1ccccc1` (stereo not drawn), the cell number change was found to be 2.2%. Also, the AC50 under setting [2] was 0.206 µM [falling, partial curve, poor fit].

For `O=S(=O)(NCc1ccc2c(c1)OCO2)c1c(F)cc(F)cc1Br`, the cell number change was determined as 4.03%.

For `Cc1ccnc(NC(=O)Nc2ccc(Br)cc2Cl)c1`, the half-maximal activity concentration (AC50) under setting [2] was 29.1 µM [rising, single point].

Take `CC(OC(=O)c1cccs1)C(=O)NCc1ccccc1` (stereo not drawn): the cell number change was -31%. Further, under setting [1], the AC50 is 10.3 µM [falling, partial curve].

Turning to `COc1ccc(OC)c(N=c2ssnc2Cl)c1`, the cell number change is -65.9%. Further, the half-maximal activity concentration (AC50) under setting [1] was 18.4 µM [falling, single point]. Moreover, the AC50 under setting [2] is 29.1 µM [falling, single point].

As to `COc1ccc(OC)c2c1sc(=NC(=O)CN1C(=O)CCC1=O)n2C`, the cell number change was -9.94%.

`CCOc1ccc(S(=O)(=O)N(C)CC(=O)NCc2ccccn2)cc1`: the cell number change amounted to 17.8%. For the same molecule, the AC50 under setting [2] is 8.2 µM [rising, partial curve].

As for `CCOc1ccc(NS(=O)(=O)c2ccc(NC(=O)[C@@H]3CCCC[C@@H]3C(=O)O)cc2)cc1`, the cell number change turned out to be 17.5%. Moreover, the AC50 under setting [2] was 29.1 µM [falling, single point].

In the case of `C/C(=N/NC(=O)c1cc(C2CC2)[nH]n1)c1cccs1`, the cell number change is -1.37%. Moreover, the AC50 under setting [2] was 0.146 µM [falling, full curve, poor fit].

As to `C=CCNC(=O)C12CC3(C)CC(C)(CC(C)(C3)C1)C2`, the cell number change is 46.6%. Moreover, under setting [1], the AC50 was 18.4 µM [rising, single point]. In addition, the AC50 under setting [2] was 18.4 µM [rising, partial curve].
